The values below come from PMC11559061.

The assay addresses S. aureus Fpa fused to the small (SmBIT) or large (LgBIT) portion of luciferase (S. aureus) (UniProt Q2FHW8). The assay is described as follows: split reporter; two-plasmid (pLgBIT and pSmBIT) split luciferase in living S. aureus Δfpa::tetM fur* cells, TSB, 37°C, luminescence read after 30 minutes.

No constants are given. Whether binding was seen depends on the method and setting. In cells and extracts the contact can be indirect. Some entries that bind do so weakly or less than the wild type. Where a sequence is shown, tags or fusion partners need not be part of it.

B1: S. aureus Fpa fused to the small (SmBIT) or large (LgBIT) portion of luciferase (protein, UniProt Q2FHW8 1-91)
chain: MAKQATMKNAALKQLTKDADEILHLIKVQLDNLTLPSCPLYEEVLDTQMFGLQKEVDFAVKLGLVDREDGKQIMLRLEKELSKLHEAFTLV
Take B1: the binding entry is “binds”.
